Reference: PubChem BioAssay AID652243 (Drosophila RNAi Screening Center, 2013)

- Screen: 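Fly regulators of androgen-dependent reporter output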 (primary screen)
- Cell system: Drosophila S2R+ cells
- Reagents: long dsRNA against Drosophila genes
- Time to read-out: 72 h (48 h, then 24 h hormone)
- Conditions: synthetic androgen R1881 at 10 nM for 24 h
- Measurement: 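Firefly light from an androgen-responsive reporter and Renilla control light per well, raw and unnormalised, for each of two replicates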
- Direction: firefly reporter light: higher = more light from androgen-responsive reporter; Renilla control light: higher = more constitutive control signal (cell number, transfection)
- Rule for the call: 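Across duplicate plates, a knock-down whose log firefly/Renilla ratio shifted a set fold down or up from the GFP/LacZ control mean was a hit; the downward cut appears as both 1.5 and 3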
- Calls: active = hit: reporter lowered or raised; inactive = no hit
The deposit covers about 24,000 reagents; this is an unselected part of those that have a named target and a result. Over the whole deposit, 246 (1%) got an active call. 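Plates not normalised; calls are printed but the firefly/Renilla ratio behind them is not deposited; fold cut for lowering reported inconsistently.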 Raw values vary from plate to plate and are shown uncorrected. Reagents against one gene are numbered here. No sequences are given here. Not stated in the record: the amount of reagent.

csw #1 gave firefly reporter light, replicate 1 = 1.73e5; firefly reporter light, replicate 2 = 2.70e5; Renilla control light, replicate 1 = 3.90e6; Renilla control light, replicate 2 = 2.99e6; inactive.
csw #2 showed firefly reporter light, replicate 1 = 5.45e5; firefly reporter light, replicate 2 = 6.55e5; Renilla control light, replicate 1 = 7.05e5; Renilla control light, replicate 2 = 8.50e5; inactive.
csw #3 scored inactive.
Against csw #4, the values are firefly reporter light, replicate 1 = 4.91e5; firefly reporter light, replicate 2 = 4.69e5; Renilla control light, replicate 1 = 1.07e6; Renilla control light, replicate 2 = 8.36e5; inactive.
Silencing of Klp67A #1 gave: firefly reporter light, replicate 1 = 1.25e5; firefly reporter light, replicate 2 = 1.49e5; Renilla control light, replicate 1 = 1.28e6; Renilla control light, replicate 2 = 1.11e6; inactive.
With knock-down of Klp67A #2, the record shows firefly reporter light, replicate 1 = 1.67e5; firefly reporter light, replicate 2 = 1.82e5; Renilla control light, replicate 1 = 3.53e5; Renilla control light, replicate 2 = 3.27e5; inactive.
CG8728 scored firefly reporter light, replicate 1 = 1.13e6; firefly reporter light, replicate 2 = 4.13e5; Renilla control light, replicate 1 = 1.52e6; Renilla control light, replicate 2 = 7.93e5; inactive.
For CG17121 the deposit lists firefly reporter light, replicate 1 = 1.74e5; firefly reporter light, replicate 2 = 2.52e5; Renilla control light, replicate 1 = 2.23e6; Renilla control light, replicate 2 = 2.65e6; inactive.
Against CG15894, the entry reads firefly reporter light, replicate 1 = 1.31e5; firefly reporter light, replicate 2 = 1.53e5; Renilla control light, replicate 1 = 1.61e6; Renilla control light, replicate 2 = 1.77e6; inactive.

Records above whose target name starts with K or k:
Klp67A #1: firefly reporter light, replicate 1 = 1.25e5; firefly reporter light, replicate 2 = 1.49e5; Renilla control light, replicate 1 = 1.28e6; Renilla control light, replicate 2 = 1.11e6; call = inactive
Klp67A #2: firefly reporter light, replicate 1 = 1.67e5; firefly reporter light, replicate 2 = 1.82e5; Renilla control light, replicate 1 = 3.53e5; Renilla control light, replicate 2 = 3.27e5; call = inactive

Additional entries follow.
With knock-down of AANATL6, the record shows firefly reporter light, replicate 1 = 80882; firefly reporter light, replicate 2 = 87874; Renilla control light, replicate 1 = 1.03e6; Renilla control light, replicate 2 = 1.23e6; inactive.
CG33127 gave firefly reporter light, replicate 1 = 1.43e5; firefly reporter light, replicate 2 = 75266; Renilla control light, replicate 1 = 4.74e5; Renilla control light, replicate 2 = 2.63e5; inactive.
Knock-down of twf #1 resulted in: firefly reporter light, replicate 1 = 33747; firefly reporter light, replicate 2 = 45517; Renilla control light, replicate 1 = 2.90e5; Renilla control light, replicate 2 = 3.06e5; active.
With knock-down of twf #2 the results were inactive.
After knock-down of Su(var)3-7 the results were firefly reporter light, replicate 1 = 33277; firefly reporter light, replicate 2 = 50376; Renilla control light, replicate 1 = 6.76e5; Renilla control light, replicate 2 = 1.08e6; inactive.
Depletion of CG13972 #1 resulted in: firefly reporter light, replicate 1 = 2.14e5; firefly reporter light, replicate 2 = 2.00e5; Renilla control light, replicate 1 = 1.92e6; Renilla control light, replicate 2 = 2.68e6; inactive.
With knock-down of CG13972 #2, the screen gave firefly reporter light, replicate 1 = 3.26e5; firefly reporter light, replicate 2 = 3.48e5; Renilla control light, replicate 1 = 4.00e5; Renilla control light, replicate 2 = 8.13e5; inactive.
With knock-down of CG12084 #1, the record shows firefly reporter light, replicate 1 = 6.26e5; firefly reporter light, replicate 2 = 5.17e5; Renilla control light, replicate 1 = 1.18e6; Renilla control light, replicate 2 = 1.09e6; inactive.
Against CG12084 #2 the deposit lists firefly reporter light, replicate 1 = 2.96e5; firefly reporter light, replicate 2 = 2.33e5; Renilla control light, replicate 1 = 4.23e5; Renilla control light, replicate 2 = 2.29e5; inactive.
For Sam-S, the values are firefly reporter light, replicate 1 = 8.45e5; firefly reporter light, replicate 2 = 8.18e5; Renilla control light, replicate 1 = 3.94e6; Renilla control light, replicate 2 = 1.79e6; inactive.
Against CG12289 #1 the deposit lists firefly reporter light, replicate 1 = 1.80e5; firefly reporter light, replicate 2 = 1.53e5; Renilla control light, replicate 1 = 2.64e6; Renilla control light, replicate 2 = 2.32e6; inactive.
Against CG12289 #2, the entry reads inactive.
After knock-down of CG12289 #3 the results were inactive.
With knock-down of eIF1 #1, the screen gave firefly reporter light, replicate 1 = 1.75e5; firefly reporter light, replicate 2 = 2.03e5; Renilla control light, replicate 1 = 1.75e6; Renilla control light, replicate 2 = 2.58e6; inactive.
eIF1 #2 gave firefly reporter light, replicate 1 = 6.32e5; firefly reporter light, replicate 2 = 6.10e5; Renilla control light, replicate 1 = 1.20e6; Renilla control light, replicate 2 = 1.14e6; inactive.
Against CG34199 #1 the deposit lists firefly reporter light, replicate 1 = 7.50e5; firefly reporter light, replicate 2 = 8.77e5; Renilla control light, replicate 1 = 1.20e6; Renilla control light, replicate 2 = 1.20e6; inactive.
Knock-down of CG34199 #2 came out at: firefly reporter light, replicate 1 = 6.20e5; firefly reporter light, replicate 2 = 5.62e5; Renilla control light, replicate 1 = 1.39e6; Renilla control light, replicate 2 = 1.14e6; inactive.
Depletion of Pde8 #1 resulted in: firefly reporter light, replicate 1 = 7.13e5; firefly reporter light, replicate 2 = 8.52e5; Renilla control light, replicate 1 = 1.21e6; Renilla control light, replicate 2 = 1.84e6; inactive.
With knock-down of Pde8 #2, the screen gave firefly reporter light, replicate 1 = 6.85e5; firefly reporter light, replicate 2 = 7.48e5; Renilla control light, replicate 1 = 9.09e5; Renilla control light, replicate 2 = 1.19e6; inactive.
